Measurements: US12419889B2, “Methods of treating chronic spontaneous urticaria using a bruton's tyrosine kinase inhibitor” (NOVARTIS AG, priority 2019, dated 2025)
At least one read-out could not be matched to a standard name with certainty.

Assay: First-in-human study, blood and urine PK (SAD, MAD q.d., b.i.d.)
Type: in vivo
Method: A first-in-human study was conducted to assess the safety and tolerability, pharmacokinetics (PK) and pharmacodynamics (PD) of single and multiple doses of compound (I) both as once daily (qd) and twice daily (bid) oral administration in healthy volunteers and those with atopic diathesis, to support further clinical development of compound (I) in autoimmune diseases. This study also explored the effect of food intake. […]
The SAD part (Part 1) had ten dose levels and the MAD parts (Parts 2 & 4) consisted of eight dose levels (6 cohorts using single daily dosing in Part 2 and 2 cohorts using twice daily dosing in Part 4). […] Within the SAD part, doses up to approximately 4 times the estimated pharmacologically active dose (PAD) were to be evaluated before the MAD part of the study was started, providing there was no safety signal emerging from the SAD part until then. […]

**Q.** Which results are given for `C=CC(=O)N(C)CCOc1c(N)ncnc1-c1cc(F)cc(NC(=O)c2ccc(C3CC3)cc2F)c1C` [Compound (I), N-(3-(6-Amino-5-(2-(N-methylacrylamido)ethoxy)pyrimidin-4-yl)-5-fluoro-2-methylphenyl)-4-cyclopropyl-2-fluorobenzamide]?
**A.** Vss/F, median (min-max) (blood, Day 12, 600 mg qd): 7070 (2340- L; time to reach Cmax (single ascending doses 0.5-600 mg, all doses): 1 to 1.5 h
